Laboratory results taken from PubChem BioAssay AID1458 (National Center for Advancing Translational Sciences (NCATS), 2008).
About 5,900 (2.8%) of roughly 210,000 compounds were called active. Inconclusive results (about 5%) are left out. Calls come from the whole dose curve; as a rule, active = well fitted activation curve with a large enough effect; inconclusive = small, poorly fitted or top-dose-only effect; inactive = no such curve, though single readings can be large or run the other way. The entries are a selection whose mix differs from that of the whole data set. Where no call is shown, the source filed none. Where a structure was tested more than once in an assay, its records may differ in their call.

Test: qHTS Assay for Enhancers of SMN2 Splice Variant Expression; note: nearly all actives have a fitted effect of over 55% in size; for activity change, positive = activation: % of control where 0% means no effect
Conditions: HEK293 SMN2-luciferase splicing reporter, luminescence, 30-36 h; activity change, positive = activation: at 46.1 µM (top of the series) unless noted
Text: NIH Chemical Genomics Center [NCGC] NIH Molecular Libraries Probe Production centers Network [MLPCN] MLPCN Grant: R03 MH084179-01 Assay Submitter (PI): Elliot Androphy NCGC Assay Overview: Spinal muscular atrophy (SMA) is caused by insufficient levels of the survival motor neuron protein SMN. The SMN locus on chromosome 5q13 contains two inverted copies of SMN called SMN1 and SMN2 which are 99% identical at the amino acid level. SMN1 is a fully functional protein and SMN2 skips exon 7 90% of the time. Skipping of exon 7 produces non-functional protein product. 10% of the SMN2 protein includes exon 7 and is fully functional. In the SMA disease state, mutations in the SMN1 locus are the cause of the disease state. Because only 10% of SMN2 is of the fully functional form, it is not sufficient to overcome the deficiency produced by the loss of the SMN1 product. A therapy that either increase the amount of SMN2 product made or to increase the inclusion of exon 7 has been proposed for the treatment of SMA. We have designed an assay to identify small molecules that can increase the amount of functional SMN2 product by appending a luciferase reporter gene after the native SMN2 gene, such that inclusion of exon 7 in the expressed product places the luciferase sequence in frame, thus generating functional luciferase enzyme.
NCGC Assay Protocol Summary: This screen utilizes a luciferase reporter gene assay, combining the promoter and splicing based cassettes in tandem with the major portion of the native SMN2 cDNA, and then transfected into HEK293 cells. Compounds that increase luciferase signal presumably enhance expression of the functional SMN2 splice variant. Passaging media contained DMEM w/ glutamax (+phenol red) 10% FCS, 1x pen/strep, 200 ug/ml hygro, 1x sodium pyruvate. Assay media contained DMEM w/ glutamax (-phenol red) 10% FCS, 1x pen strep, 1x pyruvate Sequence, Parameter, Value, Description (1) Cells, […], 2000 cells/well, 1536 TC treated White solid bottom plate (2) Time, 10-12 hours, 37C 5% CO2 (3) Compound, 23 nl, MLSMR Library (4) Control Compound, 23 nL, Sodium butyrate st 4.5mM (final) conc (5) Time, 30-36 hours, 37C 5% CO2 (6) Reagent, 3 ul, One Glo (TM) from Promega (7) Time, 5-15 minutes, Room temp (8) Detector, Viewlux: luminescent read, 60 second integration, high speed 2x binning Keywords: Spinal muscular atrophy, SMA, SMN2, high throughput screening, MLSMR, MLPCN, NIH Roadmap, qHTS and NCGC
Potency is the fitted concentration of half-maximal effect.

SMILES | activity change, positive = activation | Potency
CC(C)(C)c1ccc(C(=O)c2c[nH]c(C(=O)NCCCn3ccnc3)c2)cc1 | inactive: -50.1% | –
O=C(Nc1ccc(Cc2ccncc2)cc1)c1ccc(S(=O)(=O)N2CCOCC2)cc1 | -62.9% | –
CCOc1ccc(C(=O)N/N=C(\c2ccccc2)c2ccccn2)cc1 | inactive: -63.4% | –
COc1ccc(NC(=O)CSC2CC(=O)N(c3ccc4c(c3)OCCO4)C2=O)cc1 (stereo not given) | 21.6% | –
O=C(/C=C/c1ccc(OCCCF)cc1)Nc1ccnc(-c2cccnc2)n1 | inactive: -35.6% | –
CC(=O)c1ccc(NC(=O)C(C)N(C)CC(=O)Nc2ccc(N3CCOCC3)cc2)cc1 (stereo not given) | -14.2% | –
COc1ccc(-c2nnc(SCC(=O)NCc3ccco3)n2C)cc1 | 31.6% | –
O=C(CC(Nc1ccccc1)C(=O)O)c1ccccc1 (stereo not given) | – | active: 12.6 µM
Cc1c(C(=O)NNC(=S)Nc2cccc(Cl)c2)nnn1-c1ccccc1 | inactive: 36.5% | –
COc1ccc(-c2cc(=O)c3cc(OC)ccc3o2)cc1 | inactive: 392% | –
CCc1nnc(NC(=O)Cn2nnc(-c3ccccc3F)n2)s1 | 42.7% | –
O=C1CCN(S(=O)(=O)c2cccs2)c2ccc(C(F)(F)F)cc2N1 | inactive: 20.1% | –
COc1ccc(C/C(N)=N/OC(=O)c2cccs2)cc1 | -18.5% | –
Cc1cc(C)n2nc(SCc3nnc(SCc4ccccc4Cl)s3)nc2n1 | inactive: -56.5% | –
COc1ncc2nc(-c3cc(F)cc(F)c3)c(=O)n(CCc3ccccc3)c2n1 | inactive: -13.6% | –
COc1ccc(C)cc1N(CC(=O)Nc1cccc(N(C)S(C)(=O)=O)c1)S(C)(=O)=O | 30.6% | –
O=C1c2ccccc2NC(c2ccccc2O)N1NS(=O)(=O)c1ccccc1 (stereo not given) | -48.6% | –
CCC(C)NC(=O)C1(C)CCC(=O)N1CCc1ccc(OC)c(OC)c1 (stereo not given) | 21.9% | –
CC(=O)c1cnc2nc(C(F)(F)F)nn2c1C | 35.8% | –
CCCCC(=O)Nc1ccc(NC(=O)c2cccnc2)cn1 | 47% | –
CCOC(=O)N/N=C/c1cn(Cc2ccccc2Cl)c2ccccc12 | -56.3% | –
Cc1cc(NS(=O)(=O)c2ccc(NC(=O)c3ccco3)cc2)no1 | 43.1% | –
Cc1ccccc1OCC(=O)N1CCCc2ccccc21 | 43% | –
Cc1oc(C(C)(C)C)cc1C(=O)N1CCCC1C(=O)O (stereo not given) | -88.3% | –
CC1C(c2ccccc2)N(C)C(c2ccccc2)CC1(O)c1ccccc1 (stereo not given) | -33.5% | –
CCOC(=O)Nc1ccc(S(=O)(=O)Nn2cnnc2)cc1 | 40.8% | –
Cc1ccc2nc(-c3ccccc3)cn2c1 | – | active: 0.501 µM
CC(C)Cn1c(N)c(C(=O)COC(=O)CCc2nc3ccccc3s2)c(=O)n(C)c1=O | -41.8% | –
O=C(c1ccc(C(F)(F)F)cc1)N1CCCCC1 | 30.7% | –
Cn1cccc1C(=O)N1CCC2(CC1)CCN(c1cccc(-c3ccccc3)c1)CC2 | inactive: -53.5% | –

Ordered by length of the SMILES (high to low): some entries from above.
SMILES | activity change, positive = activation | Potency
O=C1CCN(S(=O)(=O)c2cccs2)c2ccc(C(F)(F)F)cc2N1 | inactive: 20.1% | –
Cc1cc(NS(=O)(=O)c2ccc(NC(=O)c3ccco3)cc2)no1 | 43.1% | –
CCOC(=O)Nc1ccc(S(=O)(=O)Nn2cnnc2)cc1 | 40.8% | –
CCCCC(=O)Nc1ccc(NC(=O)c2cccnc2)cn1 | 47% | –
CC(=O)c1cnc2nc(C(F)(F)F)nn2c1C | 35.8% | –
